Results are given in words; binding and its absence hold for the method and conditions named. In cells and extracts the contact can be indirect. Some results given as binding are weak or reduced against the parent protein; the word gives no strength.
Molecular target: Nur77 (in HEK293T cells, co-immunoprecipitation) (UniProt P22736)
Assay: co-IP; HEK293T cells transfected with Nur77 and PPARγ plasmids, treated with peptide (ST-CY14 1 × 10^-5 M) for 24 h; NP40 lysis; IP with Nur77 antibody, blot for PPARγ and Trim13

Chains of the proteins cited; added tags and fusions are not shown.
UniProt P22736: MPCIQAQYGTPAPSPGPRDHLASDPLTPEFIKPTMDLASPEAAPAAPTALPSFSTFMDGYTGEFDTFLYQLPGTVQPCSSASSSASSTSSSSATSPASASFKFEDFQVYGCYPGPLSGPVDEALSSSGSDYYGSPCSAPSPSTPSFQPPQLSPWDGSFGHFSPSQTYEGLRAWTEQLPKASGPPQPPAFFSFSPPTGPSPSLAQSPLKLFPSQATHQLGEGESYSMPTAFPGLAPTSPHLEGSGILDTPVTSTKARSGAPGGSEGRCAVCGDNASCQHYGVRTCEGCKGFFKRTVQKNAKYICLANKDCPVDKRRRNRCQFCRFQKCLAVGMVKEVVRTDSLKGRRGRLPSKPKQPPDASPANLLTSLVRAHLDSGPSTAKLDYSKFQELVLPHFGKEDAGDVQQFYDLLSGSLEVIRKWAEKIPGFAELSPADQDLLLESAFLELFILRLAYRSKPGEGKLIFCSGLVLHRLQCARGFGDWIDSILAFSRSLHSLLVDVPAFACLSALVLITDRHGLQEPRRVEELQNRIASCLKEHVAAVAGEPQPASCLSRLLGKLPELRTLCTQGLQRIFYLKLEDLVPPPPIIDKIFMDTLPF

binding: binds
B1: Trim13 (enzyme, UniProt O60858 1-407)
chain: MELLEEDLTCPICCSLFDDPRVLPCSHNFCKKCLEGILEGSVRNSLWRPAPFKCPTCRKETSATGINSLQVNYSLKGIVEKYNKIKISPKMPVCKGHLGQPLNIFCLTDMQLICGICATRGEHTKHVFCSIEDAYAQERDAFESLFQSFETWRRGDALSRLDTLETSKRKSLQLLTKDSDKVKEFFEKLQHTLDQKKNEILSDFETMKLAVMQAYDPEINKLNTILQEQRMAFNIAEAFKDVSEPIVFLQQMQEFREKIKVIKETPLPPSNLPASPLMKNFDTSQWEDIKLVDVDKLSLPQDTGTFISKIPWSFYKLFLLILLLGLVIVFGPTMFLEWSLFDDLATWKGCLSNFSSYLTKTADFIEQSVFYWEQVTDGFFIFNERFKNFTLVVLNNVAEFVCKYKLL
